Where a name gives a salt, the structure may show the parent alone. Read-outs that look alike come from different tables or passages of the source. The campaign covered roughly 3,300 compounds. About 60 (2%) showed an effect of 50% or more. Some of the results follow.
System: HCoV-OC43
Set-up: species or system RD; HTS, protection from HCoV-OC43 induced cell death, luminescent cell viability (CellCounting-Lite 2.0), inhibition rate
Settings: 24 h post infection, 1 h compound pre-incubation, 10 µM, inhibitor

SMILES	OC43 Inhibition rate	OC43 Inhibition rate (OC43 Inhibition rate, 24 h)
Nc1nc(N)nc(N)n1 [Melamine]	-0.3%	
Cc1ccc2ccc(=O)oc2c1 [7-Methylcoumarin]	0.5%	
COC(=O)c1cc(OC)c(OC)c(OC)c1 [Methyl 3,4,5-trimethoxybenzoate]	-0.3%	
C=C[C@H]1[C@H](O[C@@H]2O[C@H](CO)[C@@H](O)[C@H](O)[C@H]2O)OC=C2C(=O)N3CCc4c([nH]c5ccccc45)[C@@H]3C[C@H]21 [Strictosamide]	1.9%	
CSCCC(NC(C)=O)C(=O)O (racemic) [N-Acetyl-DL-methionine]	-0.1%	
Oc1ccc2ccccc2c1 [2-Naphthol]	1.3%	
COc1c2occc2cc2ccc(=O)oc12 [Methoxsalen]	2.3%	
O=C(N[C@@H](Cc1ccccc1)C(=O)N[C@H](CO)Cc1ccccc1)c1ccccc1 [Aurantiamide]	1%	
COc1ccc(CCO)cc1 [4-Methoxyphenethyl alcohol]	-0.3%	
CC1(C)CC[C@]2(C(=O)O[C@@H]3O[C@H](CO)[C@@H](O)[C@H](O)[C@H]3O)CC[C@]3(C)C(=CC[C@@H]4[C@@]5(C)CC[C@H](O[C@@H]6O[C@H](C(=O)O)[C@@H](O)[C@H](O)[C@H]6O)C(C)(C)[C@@H]5CC[C@]43C)[C@@H]2C1 [Chikusetsusaponin Iva]	7.6%	
CC(C)CC(N)=O [Isovaleramide]	-0.6%	
N[C@@H](Cc1c[nH]cn1)C(=O)O [L-Histidine (hydrochloride hydrate)]		2.4%
CC1=C[C@H]2[C@@]3(O)[C@H](C)[C@@H](O)[C@]4(O)[C@H]([C@@H]3C=C(CO)C[C@]2(O)C1=O)C4(C)C [Phorbol]	0.2%	
C=C1C(=O)O[C@H]2C[C@@H](C)[C@@H]3[C@@H](OC(C)=O)C[C@H](O)[C@@]3(C)[C@@H](OC(C)=O)[C@H]12 [Britannin]	2.5%	
N#Cc1ccc(C(c2ccc(C#N)cc2)n2cncn2)cc1 [Letrozole]	3.4%	
CCCCCCCCCCCCCCCCCCOCC(O)CO (centres unmarked) [Batilol]	-1.3%	
CCC(=O)C(C)=O [2,3-Pentanedione]	-0.2%	
C=C(C(=O)c1c(OC)cc2c(c1OC)OCO2)c1ccccc1O [Biliatresone]	2.7%	
CC1NC(=O)CNC1=O (centres unmarked) [Cyclo(Ala-Gly)]	-0.2%	
C=C(C)[C@@H]1CC=C(C)CC1 [(-)-Limonene]	-0.1%	
O=C1CCCCN1 [2-Piperidone]	0.6%	

A stretch from further up, as a working copy:
SMILES	OC43 Inhibition rate	OC43 Inhibition rate (OC43 Inhibition rate, 24 h)
Cc1ccc2ccc(=O)oc2c1 [7-Methylcoumarin]	0.5%	
COC(=O)c1cc(OC)c(OC)c(OC)c1 [Methyl 3,4,5-trimethoxybenzoate]	-0.3%	
C=C[C@H]1[C@H](O[C@@H]2O[C@H](CO)[C@@H](O)[C@H](O)[C@H]2O)OC=C2C(=O)N3CCc4c([nH]c5ccccc45)[C@@H]3C[C@H]21 [Strictosamide]	1.9%	
CSCCC(NC(C)=O)C(=O)O (racemic) [N-Acetyl-DL-methionine]	-0.1%	

(cont.)

SMILES	OC43 Inhibition rate	OC43 Inhibition rate (OC43 Inhibition rate, 24 h)
CC(C)NCC(O)COc1cccc2ccccc12 (centres unmarked) [Propranolol]		36.7%
O=C(O)c1ccc(O)c(O)c1 [Protocatechuic acid]	0.2%	
CC(C)=C/C=C1\O[C@@H]2CC(C)=CC(=O)[C@@H]2[C@]1(C)O [Bisabolangelone]	-1.6%	
CC1(C)C=Cc2c(ccc(-c3coc4cc(O)ccc4c3=O)c2O)O1 [Glabrone]	-2.5%	
Cc1c2ccncc2c(C)c2c1[nH]c1ccccc12 [Ellipticine (hydrochloride)]	30.7%	
CC(=O)O[C@H]1CC[C@]2(C)C3=C(CC[C@H]2C1(C)C)[C@]1(C)CC[C@H]([C@@H](CCC=C(C)C)C(=O)O)[C@@]1(C)CC3 [Tsugaric acid A]	-1.8%	
CC(C)c1ccc(C(=O)O)cc1 [4-Isopropylbenzoic acid]	-0.4%	
CC(=O)O[C@H]1[C@H]2[C@H]([C@@H]3[C@H]4OC(=O)[C@@](C)(O)[C@@]5(C)C(=O)C[C@@H](C)[C@@H]([C@@H]45)[C@@]3(C)[C@H]1OC(C)=O)[C@@H](OC(C)=O)C(=O)[C@H]1C[C@@H]3O[C@@H]3[C@H](OC(C)=O)[C@]21C [Taccalonolide C]	-2.3%	
COC(=O)C1=CC[C@@]23CC[C@@H]([C@@](C)(/C=C/C=C(\C)C(=O)O)OC2=O)[C@@]3(O)CC1 [Pseudolaric Acid C]	1.1%	
C[C@@H](CC[C@@]1(O)O[C@H]2C[C@H]3[C@@H]4CC[C@@H]5C[C@@H](O[C@@H]6O[C@H](CO)[C@H](O)[C@H](O)[C@H]6O[C@@H]6O[C@H](CO)[C@@H](O)[C@H](O)[C@H]6O)CC[C@]5(C)[C@H]4CC[C@]3(C)[C@H]2[C@@H]1C)CO[C@@H]1O[C@H](CO)[C@@H](O)[C@H](O)[C@H]1O [Timosaponin BII]	0.5%	
CC(C)=CCc1c(-c2ccc(O)cc2O)oc2c(CC=C(C)C)c(O)cc(O)c2c1=O [Mulberrin]	51.7%	
C=CCc1ccc(O)c(O)c1 [4-Allylcatechol]	1%	
CC1(C)CC[C@]2(C(=O)O)CC[C@]3(C)C(=CC[C@@H]4[C@@]5(C)CC[C@H](O[C@@H]6O[C@H](C(=O)O)[C@@H](O)[C@H](O[C@@H]7OC[C@@H](O)[C@H](O)[C@H]7O)[C@H]6O)C(C)(C)[C@@H]5CC[C@]43C)[C@@H]2C1 [Momordin Ic]	-0.6%	
Cc1cc(O[C@@H]2O[C@H](CO)[C@@H](O)[C@H](O)[C@H]2O)c2c(c1)C(=O)c1cccc(O)c1C2=O [Chrysophanein]	2.2%	
C[C@H]1O[C@H](O[C@H]2[C@H](O)[C@@H](O)[C@@H](O[C@H]3[C@H](O)[C@@H](O)C(O)O[C@@H]3CO)O[C@@H]2CO)[C@H](O)[C@@H](O)[C@@H]1N[C@H]1C=C(CO)[C@@H](O)[C@H](O)[C@H]1O (some centres unmarked) [Acarbose]	-2.8%	
c1cncc(C2CCCCN2)c1 (racemic) [(±) Anabasine]	-0.1%	
COc1cc(/C=C/C(=O)O)ccc1O [(E)-Ferulic acid]		-0.7%
N#CCCN [β-Aminopropionitrile]	-0.8%	
CC1(C)CC[C@]2(C(=O)O)CC[C@]3(C)C(=CC[C@@H]4[C@@]5(C)CC[C@H](O[C@@H]6OC[C@H](O)[C@H](O)[C@H]6O)[C@@](C)(CO)[C@@H]5CC[C@]43C)[C@@H]2C1 [Cauloside A]	-3.8%	
C[C@H]1CC[C@@H]2[C@@H](C)[C@H]3[C@H](C[C@H]4[C@@H]5CC=C6C[C@@H](O)CC[C@]6(C)[C@H]5CC[C@]34C)N2C1 [Solanidine]	-0.2%	
CC(C)=CCc1c(-c2ccc(O)cc2O)oc2c3c(cc(O)c2c1=O)OC(C)(C)C=C3 [Morusin]	5.8%	

SMILES	OC43 Inhibition rate	OC43 Inhibition rate (OC43 Inhibition rate, 24 h)
C[C@H](CCC(=O)O)[C@H]1CC[C@H]2[C@@H]3C(=O)C[C@@H]4C[C@H](O)CC[C@]4(C)[C@H]3CC[C@]12C [7-Ketolithocholic acid]	-0.3%	
COc1cc2c3c(c1OC)-c1ccccc1C[C@H]3NCC2 [N-Nornuciferine]	12.4%	
CC/C=C/CC1C(=O)CCC1CC(=O)OC (centres unmarked) [Methyl 2-(3-oxo-2-(pent-2-en-1-yl)cyclopentyl)acetate]	1.5%	
COC[C@@H]1Cc2cc(OC)c3c(c2[C@H](c2ccc(OC)c(OC)c2)[C@H]1COC)OCO3 [Hypophyllanthin]	11.3%	
COc1cc(C(=O)OCCCCNC(=N)N)cc(OC)c1O [Leonurine]		-0.2%
COc1cc(/C=C/C(=O)O[C@H]2CC[C@]34C[C@]35CC[C@]3(C)[C@@H]([C@H](C)CCC=C(C)C)CC[C@@]3(C)[C@@H]5CC[C@H]4C2(C)C)ccc1O [γ-Oryzanol]	-0.7%	
CC(=O)O[C@@H]1[C@@H](O)[C@H](O[C@H]2CC[C@]34C[C@]35CC[C@]3(C)[C@@H]([C@@]6(C)CC[C@@H](C(C)(C)O)O6)[C@@H](O)C[C@@]3(C)[C@@H]5C[C@H](O[C@@H]3O[C@H](CO)[C@@H](O)[C@H](O)[C@H]3O)[C@H]4C2(C)C)OC[C@H]1O [Isoastragaloside II]	-0.2%	
CC(=O)OCC(=O)[C@@]1(O)CC[C@H]2[C@@H]3CCC4=CC(=O)CC[C@]4(C)[C@H]3[C@@H](O)C[C@@]21C [Hydrocortisone acetate]	1.1%	
CCc1ccc(O)cc1 [4-Ethylphenol]	0.8%	
O=C[C@H](O)[C@@H](O)[C@H](O)[C@H](O)C(=O)O [D-Glucuronic acid]	-0.5%	
CN1c2ccccc2C(=O)N2CCc3c([nH]c4ccccc34)C21 (racemic) [(±)-Evodiamine]	-0.6%	
CC(=O)OC/C=C/c1ccccc1 [Cinnamyl acetate]	-0.2%	
O=C1Cc2cc(O)ccc2N1 [5-Hydroxyoxindole]	0.2%	
CCCCCCCCCCCCCCCC(=O)OC/C=C(C)/C=C/C=C(C)/C=C/C1=C(C)CCCC1(C)C [Retinyl palmitate]	9.9%	
COc1ccc(-c2cc(=O)c3c(O)c(OC)c(OC)cc3o2)cc1O [Eupatorin]	6.5%	
O=C(O)CCCCCCCC(=O)O [Azelaic acid]	-0.1%	
C=C1CC[C@@H]2[C@](C)(CO)[C@H](O)CC[C@@]2(C)[C@@H]1CCC1=CCOC1=O [Deoxyandrographolide]		2.2%
CC(=O)OCC(=O)[C@@]1(O)CC[C@H]2[C@@H]3CCC4=CC(=O)C=C[C@]4(C)[C@@]3(Cl)[C@@H](Cl)C[C@@]21C [Dichlorisone acetate]	-0.2%	
CCCCCCCCCCCCCCCCCCCCCCCCC [Pentacosane]	-0.4%	
C[C@H]1O[C@@H](O[C@@H]2CC[C@@]3(C)[C@@H](CC[C@]4(C)[C@@H]3C=C[C@]35OC[C@@]6(CCC(C)(C)C[C@H]63)[C@@H](O)C[C@]54C)[C@@]2(C)CO)[C@H](O)[C@@H](O)[C@H]1O (stereo in doubt) [Prosaikogenin G]	-5.3%	
